Assay results published in article PMC3454344.
Results are given in words; binding and its absence hold for the method and conditions named. Binding seen in cells or lysates may run through a third protein. Some entries that bind do so weakly or less than the wild type.

Protein sequences, listed by entry. Tags and fused reporters are not part of them.
UniProt P70288: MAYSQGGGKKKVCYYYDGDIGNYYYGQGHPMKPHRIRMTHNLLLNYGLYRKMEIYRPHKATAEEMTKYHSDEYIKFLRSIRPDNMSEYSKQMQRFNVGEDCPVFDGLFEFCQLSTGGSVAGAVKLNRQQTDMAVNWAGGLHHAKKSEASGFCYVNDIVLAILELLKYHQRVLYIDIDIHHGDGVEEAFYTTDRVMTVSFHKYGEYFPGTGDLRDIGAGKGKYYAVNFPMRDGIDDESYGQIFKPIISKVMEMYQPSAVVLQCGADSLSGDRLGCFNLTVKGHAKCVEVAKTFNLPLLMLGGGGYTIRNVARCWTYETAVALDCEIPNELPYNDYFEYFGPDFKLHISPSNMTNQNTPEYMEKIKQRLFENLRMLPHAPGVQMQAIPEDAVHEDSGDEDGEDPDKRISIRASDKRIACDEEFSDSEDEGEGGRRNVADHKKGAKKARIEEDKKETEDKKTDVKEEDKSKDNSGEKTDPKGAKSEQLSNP

Molecular target: T1, Rb2/p130 (mouse (endogenous in NIH3T3)) (UniProt Q64700)
T1 sequence: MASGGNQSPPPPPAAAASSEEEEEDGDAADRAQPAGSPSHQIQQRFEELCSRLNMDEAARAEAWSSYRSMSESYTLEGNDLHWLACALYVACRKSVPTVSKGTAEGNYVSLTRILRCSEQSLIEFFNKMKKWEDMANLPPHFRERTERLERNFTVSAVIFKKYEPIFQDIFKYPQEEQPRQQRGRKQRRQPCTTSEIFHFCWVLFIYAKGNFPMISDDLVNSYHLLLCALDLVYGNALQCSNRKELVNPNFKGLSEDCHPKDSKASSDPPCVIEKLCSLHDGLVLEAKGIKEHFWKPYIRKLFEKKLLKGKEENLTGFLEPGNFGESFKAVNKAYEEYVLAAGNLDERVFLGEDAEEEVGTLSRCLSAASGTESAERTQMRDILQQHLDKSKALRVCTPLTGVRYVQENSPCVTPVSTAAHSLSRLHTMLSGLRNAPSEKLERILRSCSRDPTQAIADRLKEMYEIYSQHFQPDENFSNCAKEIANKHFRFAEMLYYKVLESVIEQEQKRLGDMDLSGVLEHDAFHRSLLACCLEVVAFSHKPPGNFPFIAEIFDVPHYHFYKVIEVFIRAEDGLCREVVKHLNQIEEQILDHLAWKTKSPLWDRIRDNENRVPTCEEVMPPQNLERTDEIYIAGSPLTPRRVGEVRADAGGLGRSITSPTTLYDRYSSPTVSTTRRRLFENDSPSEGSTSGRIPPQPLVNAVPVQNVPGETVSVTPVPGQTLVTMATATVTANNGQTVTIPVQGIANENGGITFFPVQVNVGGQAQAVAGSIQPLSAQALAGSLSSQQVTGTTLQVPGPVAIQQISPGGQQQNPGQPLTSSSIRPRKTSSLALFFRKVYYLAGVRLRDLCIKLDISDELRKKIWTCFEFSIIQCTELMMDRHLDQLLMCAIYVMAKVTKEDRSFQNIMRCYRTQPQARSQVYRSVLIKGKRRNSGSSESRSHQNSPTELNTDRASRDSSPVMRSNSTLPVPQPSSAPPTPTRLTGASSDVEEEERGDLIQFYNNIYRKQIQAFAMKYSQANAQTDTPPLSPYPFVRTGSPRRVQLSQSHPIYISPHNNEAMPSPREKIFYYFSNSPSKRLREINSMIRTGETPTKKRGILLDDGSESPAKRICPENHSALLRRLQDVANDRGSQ
Assay: co-IP; nuclear extract of S-phase NIH3T3 cells (16 h after re-addition of fully supplemented medium); antibody 2.5 ug/ml for 60 min at 4 C, Protein G Sepharose in IP-buffer (PBS, 1% Triton-X-100, 1 mM DTT, 0.2 mM PMSF, 1 mM NaF) for 2 h at 4 C, 4 washes; SDS-PAGE and immunoblotting

binding: binds
Substance: deacetylase HDAC II (from UniProt P70288 1-488) (enzyme)
